Results on 20 compounds are retold here after PubChem BioAssay AID1935 (Broad Institute, 2009).

SMILES strings stand for the structures. In all, about 1,200 compounds were measured (“activity change, negative = cytotoxic”: median about -53, highest 2% from about 78 on). Some of the results follow. Entries with a potency or affinity are not part of this list. Entries without a call are filed as inconclusive in the source.

A short description of this test: BJ-TERT-LT-ST fibroblast viability loss – cell-based, RAS-independent, luminescence, dose response (AID 1935). The conditions noted are these: ATP luminescence; at 15 µM (top of the series).
For `CCOc1ccc(C2=Nn3c(nnc3-c3ccccc3OC)SC2)cc1`, the activity change, negative = cytotoxic is -52.7%.

Consider `COc1ccccc1-c1nnc2sc(-c3ccc(N(C)C)cc3)nn12`, for which the activity change, negative = cytotoxic was -49.1%.

On to `O=C(/C=C/c1cccc(Cl)c1)c1ccc([N+](=O)[O-])o1`, for which the activity change, negative = cytotoxic turned out to be 77.8%.

For the compound `COc1ccc(COC(=O)c2cc([N+](=O)[O-])ccc2N2CCOCC2)cc1F`, the activity change, negative = cytotoxic was -51.5%.

In the case of `O=C(N/N=C/C(Br)=C\c1ccccc1)c1n[nH]c2c1CCC2`, the activity change, negative = cytotoxic was -22.8%.

On to `Cc1ccc(Nc2nc(-c3c(C)nc4ncccn34)cs2)cc1`, for which the activity change, negative = cytotoxic was -39.1%.

For `N#CC1=C(N)Oc2c(ccc3ccccc23)C1c1ccsc1` (stereo not given), the activity change, negative = cytotoxic is -54.9%.

Take `COc1ccc(/C=N/NC(=O)c2[nH]c3ccc(Br)cc3c2-c2ccccc2)cc1`: the activity change, negative = cytotoxic is -47.8%.

In the case of `COc1ccc(C(=O)NN(C)c2nc(C(F)(F)F)nc3ccccc23)cc1`, the activity change, negative = cytotoxic was -52.9%.

For the compound `Cc1cccc(C)c1NS(=O)(=O)c1ccc(-c2cnc(C3CC3)o2)cc1`, the activity change, negative = cytotoxic is -64.4%.

Regarding `COc1cccc(N2CCN(C(=O)c3ccc(CS(=O)c4ccccc4Cl)o3)CC2)c1` (stereo not given), the activity change, negative = cytotoxic was -51.6%.

As for `COc1cc(-c2noc(C)c2-c2ccc(N(C)C)nc2)cc(OC)c1OC`, the activity change, negative = cytotoxic was -53%.

Take `Cc1ccc(Nc2nc(N)nc(-c3oc4ccccc4c3C)n2)cc1`: the activity change, negative = cytotoxic is -64.4%.

With `CN[C@H]1CCc2cc(OC)c(OC)c(OC)c2-c2ccc(OC)c(=O)cc21`, the activity change, negative = cytotoxic is -51.3%.

As for `COc1cc(C2C(C#N)=C(N)Oc3cc(N(C)C)ccc32)cc2c1OCO2` (stereo not given), the activity change, negative = cytotoxic was -56.9%.

Take `Cc1ccc(C)c(NS(=O)(=O)c2ccc(-c3cnc(C4CC4)o3)cc2)c1`: the activity change, negative = cytotoxic is -54.7%.

As to `CCN(CC)c1ccc2cc(-c3nc4ccccc4n3C)c(=O)oc2c1`, the activity change, negative = cytotoxic is -63.6%.

For the compound `N#Cc1c(NC(=O)/C=C/c2ccco2)sc2c1CCCC2`, the activity change, negative = cytotoxic was -51%.

For the compound `CSc1nc(N(C)NC(=O)c2cccc(C)c2)c2ccccc2n1`, the activity change, negative = cytotoxic is -60.2%.

Take `Cc1cccc(N(C)S(=O)(=O)c2ccc(-c3cnc(C4CC4)o3)cc2)c1`: the activity change, negative = cytotoxic is -53.4%.
